This is one part of the list. Small differences around the control level are noise.

By UniProt entry, the sequences of proteins in these tests, tags left out. Where a name states a change or a piece, a line headed by the entry shows the natural chain unless it says otherwise.
UniProt Q9D6I7: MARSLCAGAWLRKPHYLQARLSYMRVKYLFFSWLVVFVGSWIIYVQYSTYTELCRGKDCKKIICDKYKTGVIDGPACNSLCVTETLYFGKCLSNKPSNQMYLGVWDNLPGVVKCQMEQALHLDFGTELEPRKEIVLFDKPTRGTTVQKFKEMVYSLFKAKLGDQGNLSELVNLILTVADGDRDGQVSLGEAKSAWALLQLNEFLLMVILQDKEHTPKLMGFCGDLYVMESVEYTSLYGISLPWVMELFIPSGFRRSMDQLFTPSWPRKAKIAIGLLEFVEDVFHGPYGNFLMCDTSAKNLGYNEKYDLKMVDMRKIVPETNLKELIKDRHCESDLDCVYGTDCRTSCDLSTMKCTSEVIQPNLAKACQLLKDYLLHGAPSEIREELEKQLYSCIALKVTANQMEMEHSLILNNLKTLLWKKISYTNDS
UniProt Q9D4H9: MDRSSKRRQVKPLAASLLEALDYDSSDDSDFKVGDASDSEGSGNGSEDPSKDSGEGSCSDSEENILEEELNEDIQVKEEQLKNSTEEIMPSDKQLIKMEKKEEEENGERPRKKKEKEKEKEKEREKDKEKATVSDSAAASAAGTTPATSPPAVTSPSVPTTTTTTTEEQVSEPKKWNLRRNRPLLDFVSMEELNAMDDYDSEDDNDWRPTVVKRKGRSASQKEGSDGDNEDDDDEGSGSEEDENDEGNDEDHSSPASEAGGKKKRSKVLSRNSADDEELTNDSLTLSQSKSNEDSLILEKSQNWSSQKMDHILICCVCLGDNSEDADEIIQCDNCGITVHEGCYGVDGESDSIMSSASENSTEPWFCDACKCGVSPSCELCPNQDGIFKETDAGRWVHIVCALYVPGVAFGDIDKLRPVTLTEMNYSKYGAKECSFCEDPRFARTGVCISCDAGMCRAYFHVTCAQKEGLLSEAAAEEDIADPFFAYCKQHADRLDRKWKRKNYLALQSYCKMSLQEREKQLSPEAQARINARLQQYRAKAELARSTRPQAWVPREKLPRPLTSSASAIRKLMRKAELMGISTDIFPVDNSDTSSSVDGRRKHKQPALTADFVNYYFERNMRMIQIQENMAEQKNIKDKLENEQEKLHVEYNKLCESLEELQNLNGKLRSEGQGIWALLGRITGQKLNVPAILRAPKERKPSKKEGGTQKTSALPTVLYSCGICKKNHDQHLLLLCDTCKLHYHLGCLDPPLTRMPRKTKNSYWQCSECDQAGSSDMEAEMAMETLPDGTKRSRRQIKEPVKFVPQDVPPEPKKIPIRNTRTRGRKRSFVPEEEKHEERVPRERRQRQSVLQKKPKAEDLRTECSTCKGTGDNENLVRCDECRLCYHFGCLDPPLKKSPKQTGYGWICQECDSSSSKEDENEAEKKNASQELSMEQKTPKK
UniProt Q9D1C3: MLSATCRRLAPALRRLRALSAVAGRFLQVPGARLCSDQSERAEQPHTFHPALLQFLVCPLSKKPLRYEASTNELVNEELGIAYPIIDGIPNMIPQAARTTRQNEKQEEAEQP
UniProt Q9D1C8: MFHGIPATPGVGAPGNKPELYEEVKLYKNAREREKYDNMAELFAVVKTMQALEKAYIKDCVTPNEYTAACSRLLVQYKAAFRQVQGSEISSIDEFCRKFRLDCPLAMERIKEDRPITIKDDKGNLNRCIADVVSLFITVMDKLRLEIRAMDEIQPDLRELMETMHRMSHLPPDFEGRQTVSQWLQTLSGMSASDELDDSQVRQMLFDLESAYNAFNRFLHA
UniProt Q9D8M4, whole entry: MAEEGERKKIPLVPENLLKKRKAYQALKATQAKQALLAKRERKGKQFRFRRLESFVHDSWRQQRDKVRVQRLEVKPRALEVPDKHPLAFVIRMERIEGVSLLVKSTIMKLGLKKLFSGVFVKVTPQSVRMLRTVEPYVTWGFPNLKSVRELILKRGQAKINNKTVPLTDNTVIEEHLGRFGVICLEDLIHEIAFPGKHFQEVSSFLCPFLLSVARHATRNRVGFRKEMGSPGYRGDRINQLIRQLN
UniProt Q9D6Y4: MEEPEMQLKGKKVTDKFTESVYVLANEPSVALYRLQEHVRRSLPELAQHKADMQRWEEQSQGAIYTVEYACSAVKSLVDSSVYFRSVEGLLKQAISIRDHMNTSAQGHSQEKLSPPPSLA
UniProt Q9D1H6: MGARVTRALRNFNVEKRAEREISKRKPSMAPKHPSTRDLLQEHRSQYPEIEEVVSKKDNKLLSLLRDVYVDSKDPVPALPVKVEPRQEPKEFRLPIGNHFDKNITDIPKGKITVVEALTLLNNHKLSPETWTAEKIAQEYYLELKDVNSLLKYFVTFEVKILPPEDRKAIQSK
UniProt Q9D3B1: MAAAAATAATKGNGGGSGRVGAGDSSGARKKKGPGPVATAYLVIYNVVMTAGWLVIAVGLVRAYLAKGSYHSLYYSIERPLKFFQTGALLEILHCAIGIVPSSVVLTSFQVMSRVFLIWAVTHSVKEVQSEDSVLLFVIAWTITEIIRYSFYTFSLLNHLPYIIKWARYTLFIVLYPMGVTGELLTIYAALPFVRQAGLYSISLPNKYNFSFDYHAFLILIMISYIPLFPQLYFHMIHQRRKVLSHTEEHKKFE
UniProt Q9D6K5: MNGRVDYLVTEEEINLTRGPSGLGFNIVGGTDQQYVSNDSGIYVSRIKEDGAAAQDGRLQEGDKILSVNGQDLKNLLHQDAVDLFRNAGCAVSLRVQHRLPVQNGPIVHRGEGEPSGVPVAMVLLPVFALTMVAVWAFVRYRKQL
UniProt Q9D4J1, whole entry: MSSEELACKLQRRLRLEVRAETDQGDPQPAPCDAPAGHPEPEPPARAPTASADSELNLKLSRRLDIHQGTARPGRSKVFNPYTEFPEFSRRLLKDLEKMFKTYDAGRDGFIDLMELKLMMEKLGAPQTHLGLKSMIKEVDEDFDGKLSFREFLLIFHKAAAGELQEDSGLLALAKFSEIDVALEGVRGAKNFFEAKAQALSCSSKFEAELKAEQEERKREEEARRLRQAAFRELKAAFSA
UniProt Q9D7K5: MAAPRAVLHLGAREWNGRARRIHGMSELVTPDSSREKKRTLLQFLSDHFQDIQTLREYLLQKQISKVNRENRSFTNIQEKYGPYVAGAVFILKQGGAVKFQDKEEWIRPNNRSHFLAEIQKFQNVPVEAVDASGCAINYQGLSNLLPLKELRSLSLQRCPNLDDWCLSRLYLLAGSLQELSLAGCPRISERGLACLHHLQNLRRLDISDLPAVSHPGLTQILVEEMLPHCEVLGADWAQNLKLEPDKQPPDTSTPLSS
UniProt Q9D8X5, whole entry: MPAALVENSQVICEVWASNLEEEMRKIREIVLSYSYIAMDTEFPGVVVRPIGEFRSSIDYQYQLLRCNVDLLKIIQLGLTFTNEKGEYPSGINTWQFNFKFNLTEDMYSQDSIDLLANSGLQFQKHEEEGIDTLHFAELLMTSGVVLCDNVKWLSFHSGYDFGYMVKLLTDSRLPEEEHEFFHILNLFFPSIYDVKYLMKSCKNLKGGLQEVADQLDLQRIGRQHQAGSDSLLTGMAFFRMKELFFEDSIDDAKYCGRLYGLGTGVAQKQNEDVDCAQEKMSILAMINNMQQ
UniProt Q9D3X5: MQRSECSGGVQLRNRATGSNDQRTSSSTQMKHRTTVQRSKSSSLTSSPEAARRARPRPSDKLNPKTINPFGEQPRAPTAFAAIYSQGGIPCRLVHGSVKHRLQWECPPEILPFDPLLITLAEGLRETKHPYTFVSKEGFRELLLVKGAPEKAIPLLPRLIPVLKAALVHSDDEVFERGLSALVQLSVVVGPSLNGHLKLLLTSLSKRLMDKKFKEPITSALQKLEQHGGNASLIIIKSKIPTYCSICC
UniProt Q9D8W5: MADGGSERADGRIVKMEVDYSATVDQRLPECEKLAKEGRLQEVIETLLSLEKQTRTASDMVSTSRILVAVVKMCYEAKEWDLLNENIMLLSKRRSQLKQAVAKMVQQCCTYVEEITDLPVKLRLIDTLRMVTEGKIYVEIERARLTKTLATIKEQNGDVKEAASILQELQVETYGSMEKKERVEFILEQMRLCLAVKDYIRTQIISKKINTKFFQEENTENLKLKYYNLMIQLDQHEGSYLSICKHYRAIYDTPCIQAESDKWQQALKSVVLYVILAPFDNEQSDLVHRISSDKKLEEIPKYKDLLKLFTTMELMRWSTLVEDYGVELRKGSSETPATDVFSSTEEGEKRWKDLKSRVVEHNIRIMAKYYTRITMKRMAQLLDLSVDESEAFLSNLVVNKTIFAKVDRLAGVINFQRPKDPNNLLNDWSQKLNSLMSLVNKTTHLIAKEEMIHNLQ
UniProt Q9D820: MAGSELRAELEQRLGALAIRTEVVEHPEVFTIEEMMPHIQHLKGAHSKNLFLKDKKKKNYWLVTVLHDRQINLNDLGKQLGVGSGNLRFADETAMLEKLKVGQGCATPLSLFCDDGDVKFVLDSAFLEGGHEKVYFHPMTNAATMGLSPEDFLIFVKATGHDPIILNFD
UniProt Q9D394: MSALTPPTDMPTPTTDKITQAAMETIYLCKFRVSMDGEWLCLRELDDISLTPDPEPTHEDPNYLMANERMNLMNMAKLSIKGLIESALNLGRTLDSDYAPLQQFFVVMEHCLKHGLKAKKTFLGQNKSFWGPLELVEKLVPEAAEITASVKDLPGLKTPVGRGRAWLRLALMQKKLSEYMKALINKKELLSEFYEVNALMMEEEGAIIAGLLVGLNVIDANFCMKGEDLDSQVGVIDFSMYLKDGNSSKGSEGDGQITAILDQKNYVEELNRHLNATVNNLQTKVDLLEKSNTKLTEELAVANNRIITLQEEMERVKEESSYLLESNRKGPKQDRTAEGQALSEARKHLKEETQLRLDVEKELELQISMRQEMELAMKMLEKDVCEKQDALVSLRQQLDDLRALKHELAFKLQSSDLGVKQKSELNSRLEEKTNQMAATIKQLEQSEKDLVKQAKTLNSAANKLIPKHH
UniProt Q9D1K2, whole entry: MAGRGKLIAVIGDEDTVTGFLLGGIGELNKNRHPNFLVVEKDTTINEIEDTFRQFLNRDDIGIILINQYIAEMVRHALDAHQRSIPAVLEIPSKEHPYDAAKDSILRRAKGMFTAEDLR
UniProt Q9D5J6: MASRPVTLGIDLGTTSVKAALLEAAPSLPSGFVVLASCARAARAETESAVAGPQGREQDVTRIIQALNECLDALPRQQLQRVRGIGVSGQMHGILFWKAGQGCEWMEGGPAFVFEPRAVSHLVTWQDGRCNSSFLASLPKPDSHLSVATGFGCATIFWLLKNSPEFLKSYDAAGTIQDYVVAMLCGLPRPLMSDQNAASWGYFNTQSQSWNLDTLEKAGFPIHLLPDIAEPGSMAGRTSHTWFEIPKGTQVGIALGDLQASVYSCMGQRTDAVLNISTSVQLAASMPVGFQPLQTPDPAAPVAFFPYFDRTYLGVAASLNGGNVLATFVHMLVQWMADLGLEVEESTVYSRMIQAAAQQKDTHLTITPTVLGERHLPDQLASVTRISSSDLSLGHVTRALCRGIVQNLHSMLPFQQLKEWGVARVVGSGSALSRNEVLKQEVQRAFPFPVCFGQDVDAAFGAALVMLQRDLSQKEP
UniProt Q9D7V2: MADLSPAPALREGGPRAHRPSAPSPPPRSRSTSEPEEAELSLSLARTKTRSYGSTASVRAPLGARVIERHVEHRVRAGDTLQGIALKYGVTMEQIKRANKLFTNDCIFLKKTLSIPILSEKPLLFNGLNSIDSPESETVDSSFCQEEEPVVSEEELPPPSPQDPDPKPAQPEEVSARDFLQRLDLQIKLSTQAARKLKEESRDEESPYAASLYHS
UniProt Q9D7X8: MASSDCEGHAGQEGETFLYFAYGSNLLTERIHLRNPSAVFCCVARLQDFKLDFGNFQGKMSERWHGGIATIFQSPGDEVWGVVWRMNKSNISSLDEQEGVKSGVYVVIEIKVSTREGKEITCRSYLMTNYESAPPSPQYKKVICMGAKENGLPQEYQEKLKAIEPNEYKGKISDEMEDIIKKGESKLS
UniProt Q9D486: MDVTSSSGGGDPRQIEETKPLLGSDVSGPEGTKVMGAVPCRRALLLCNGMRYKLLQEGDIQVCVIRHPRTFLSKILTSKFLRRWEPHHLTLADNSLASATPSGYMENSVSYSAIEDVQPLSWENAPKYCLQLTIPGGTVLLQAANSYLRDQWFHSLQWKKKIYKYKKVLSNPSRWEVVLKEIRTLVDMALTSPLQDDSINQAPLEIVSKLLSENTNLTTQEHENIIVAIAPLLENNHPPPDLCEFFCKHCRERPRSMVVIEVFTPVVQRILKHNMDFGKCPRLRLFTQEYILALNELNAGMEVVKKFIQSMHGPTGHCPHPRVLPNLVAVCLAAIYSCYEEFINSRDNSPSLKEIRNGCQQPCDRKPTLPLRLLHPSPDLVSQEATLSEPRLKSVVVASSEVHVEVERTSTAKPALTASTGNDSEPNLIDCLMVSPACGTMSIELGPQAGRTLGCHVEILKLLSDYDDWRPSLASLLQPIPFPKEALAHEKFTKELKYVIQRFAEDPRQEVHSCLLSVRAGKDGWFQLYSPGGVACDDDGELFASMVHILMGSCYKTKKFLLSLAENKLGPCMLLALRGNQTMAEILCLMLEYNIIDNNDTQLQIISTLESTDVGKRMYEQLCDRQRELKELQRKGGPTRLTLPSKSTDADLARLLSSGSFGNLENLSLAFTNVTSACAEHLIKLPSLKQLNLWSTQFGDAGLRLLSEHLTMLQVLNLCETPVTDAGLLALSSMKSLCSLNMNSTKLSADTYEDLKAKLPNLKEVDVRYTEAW

Compound in this experiment: CN[C@@H]1C[C@H]2O[C@@](C)([C@@H]1OC)n1c3ccccc3c3c4c(c5c6ccccc6n2c5c31)C(=O)NC4 [staurosporine]
The experiment is described as follows: log2 fold change of tryptic peptide abundance, ligand vs vehicle (limited proteolysis) (log2 ratio); higher = more trypsin-susceptible (destabilized). The following applies: ligand concentration: 20 uM; sample: mouse liver crude lysate; replicate design: treated separately.
For “UniProt Q9D6I7 (peptide sequence: SLCAGAWLR, peptide start residue: 4)”, the log2 fold change stood at 0.207. As for “UniProt Q9D4H9 (peptide sequence: NSTEEIMPSDK, peptide start residue: 83)”, the figure is -0.151.

As to “UniProt Q9D1C3 (peptide sequence: AEQPHTFHPALLQFLVCPLSK, peptide start residue: 42)”, the log2 fold change was -0.135. As for “UniProt Q9D1C8 (peptide sequence: AMDEIQPDLR, peptide start residue: 149)”, the figure is -0.0702; as for “UniProt Q9D8M4 (peptide sequence: EMGSPGYRGDR, peptide start residue: 227)”, 0.927. As for “UniProt Q9D920 (peptide sequence: VNEMSAILR, peptide start residue: 149)”, the figure is -0.204. As for “UniProt Q9D6Y4 (peptide sequence: DHMNTSAQGHSQEK, peptide start residue: 99)”, the figure is -0.761; as for “UniProt Q9D1H6 (peptide sequence: SQYPEIEEVVSKK, peptide start residue: 45)”, 0.139; as for “UniProt Q9D3B1 (peptide sequence: VGAGDSSGAR, peptide start residue: 20)”, -0.0465. “UniProt Q9D6K5 (peptide sequence: VQHRLPVQNGPIVHR, peptide start residue: 96)”: the log2 fold change is -0.912.

Regarding “UniProt Q9D4J1 (peptide sequence: LGAPQTHLGLK, peptide start residue: 124)”, the log2 fold change was 0.01.

Consider “UniProt Q9D7K5 (peptide sequence: FQDKEEWIRPNNR, peptide start residue: 100)”, for which the log2 fold change was 0.23.

For “UniProt Q9D8X5 (peptide sequence: MKELFFEDSIDDAK, peptide start residue: 241)”, the log2 fold change was -0.443. As for “UniProt Q9D7S7 (peptide sequence: VVASDKETYELR, peptide start residue: 96)”, the figure is -0.06; as for “UniProt Q9D3X5 (peptide sequence: TINPFGEQPR, peptide start residue: 66)”, -0.0255.

As to “UniProt Q9D8W5 (peptide sequence: LCLAVKDYIR, peptide start residue: 192)”, the log2 fold change came to 1.36. For “UniProt Q9D820 (peptide sequence: KNYWLVTVLHDR, peptide start residue: 58)”, the log2 fold change came out at 0.24. As for “UniProt Q9D394 (peptide sequence: MNLMNMAK, peptide start residue: 70)”, the figure is 0.231; as for “UniProt Q9D1K2 (peptide sequence: HALDAHQR, peptide start residue: 76)”, 0.206. The value for “UniProt Q9D172 (peptide sequence: WPYAGTAEAIK, peptide start residue: 202)” was 0.3. As for “UniProt Q9D5J6 (peptide sequence: HLPDQLASVTR, peptide start residue: 375)”, the figure is 0.103; as for “UniProt Q9D7V2 (peptide sequence: LFTNDCIFLKK, peptide start residue: 101)”, -0.183.

As for “UniProt Q9D338 (peptide sequence: FLSPEFIPPR, peptide start residue: 75)”, the log2 fold change came out at 0.177. As for “UniProt Q9D7X8 (peptide sequence: ISDEMEDIIK, peptide start residue: 172)”, the figure is 0.0926. As for “UniProt Q9D486 (peptide sequence: LSADTYEDLK, peptide start residue: 747)”, the figure is -0.394.

For the origin of these results see the supplement of paper PMC12819154, “High-throughput peptide-centric local stability assay extends protein–ligand identification to membrane proteins, tissues and bacteria” (Nature Structural & Molecular Biology, 2025).
